Laboratory results published in article PMC9864193.
No constants are given. Whether binding was seen depends on the method and setting. Binding seen in cells or lysates may run through a third protein. Some binding calls cover weakened binding; strength is not graded here.

Columns and labels:
[1] = biological target: epidermal growth factor receptor (EGFR) (human (endogenous in HLaC-79 cells and LSCC patient tissue)) (UniProt P00533); test: proximity ligation; in situ PLA (Duolink) in fixed HLaC-79 cells with anti-SMN mouse monoclonal and anti-EGFR rabbit polyclonal antibodies
[2] = biological target: epidermal growth factor receptor (EGFR) (human (endogenous in HLaC-79 cells and LSCC patient tissue)) (UniProt P00533); test: proximity ligation; in situ PLA (Duolink) on de-paraffined 4 μm FFPE sections of LSCC tissue from patient #5 with anti-SMN mouse monoclonal and anti-EGFR rabbit polyclonal antibodies; negative control with only one primary antibody
[3] = biological target: epidermal growth factor receptor (EGFR) (human (endogenous in HLaC-79 cells and LSCC patient tissue)) (UniProt P00533); test: co-IP; HLaC-79 cellular extracts in IP buffer (50 mM Tris-HCl pH 7.5, 250 mM NaCl, 5 mM EDTA, 50 mM NaF, 0.1 mM NaVO4, 0.1% Triton X-100, 5% glycerol); IP overnight at 4 °C with anti-EGFR rabbit polyclonal antibody beads, rabbit IgG beads as negative control; five washes; immunoblot for SMN

Measured: binding

Survival Motor Neuron (SMN) protein (from UniProt Q16637 1-294)
binds: all assays above
